# Laboratory results taken from PubChem BioAssay AID2551 (National Center for Advancing Translational Sciences (NCATS), 2010).
# Amino acid sequences for entries named in this document (tags omitted). A change or cut given only in a name is not applied to a line headed by its entry.
# UniProt P51450: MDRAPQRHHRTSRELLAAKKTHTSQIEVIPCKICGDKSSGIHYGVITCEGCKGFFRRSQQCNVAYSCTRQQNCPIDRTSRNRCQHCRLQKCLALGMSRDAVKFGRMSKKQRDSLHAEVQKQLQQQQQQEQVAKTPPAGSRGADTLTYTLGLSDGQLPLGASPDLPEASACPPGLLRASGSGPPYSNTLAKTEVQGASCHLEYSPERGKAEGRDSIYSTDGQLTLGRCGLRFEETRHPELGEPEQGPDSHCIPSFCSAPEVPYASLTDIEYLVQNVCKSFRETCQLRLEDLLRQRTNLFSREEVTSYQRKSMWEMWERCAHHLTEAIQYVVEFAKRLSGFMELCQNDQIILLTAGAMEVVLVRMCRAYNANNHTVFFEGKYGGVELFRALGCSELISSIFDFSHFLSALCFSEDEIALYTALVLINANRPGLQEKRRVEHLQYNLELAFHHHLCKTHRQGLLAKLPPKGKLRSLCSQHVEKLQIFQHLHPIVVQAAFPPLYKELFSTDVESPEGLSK
# Among all 310,000 compounds or so, about 17,000 (5.5%) were called active. Inconclusive results, whose numbers are uncertain, are shown with a selection of clear calls. The call rests on the fitted dose curve; in most records, active means well fitted inhibition curve with a large enough effect; inconclusive means small, poorly fitted or top-dose-only effect, or effect the other way; inactive means no such curve, though single readings can be large or run the other way. Potencies beside an inconclusive call are fits to weak or partial responses and may not hold up.
# Target: Nuclear receptor ROR-gamma (Mus musculus) (UniProt P51450)
# Test: qHTS for inhibitors of ROR gamma transcriptional activity; further: nearly all actives have a fitted effect of over 60% in size
# Conditions: Drosophila S2 Gal4-RORgamma UAS-luciferase reporter, 20 h; activity change, negative = inhibition: at 53.6 µM (top of the series)
# Summary of the method: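 In this cell-based reporter format, copper sulfate (700 uM final) drives Gal4–ROR gamma fusion expression from a metallothionein promoter in Drosophila Schneider cells; compounds preincubated 1 hr, reporter read after 20 hr at ambient temperature.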
# On the % scale 0 is the no-effect control and ±100 the full control effect; potency means the concentration at half of the fitted maximal effect.
SMILES,Potency,"activity change, negative = inhibition"
Cc1ccc(-c2noc(CN(C(=O)C(c3ccccc3)c3ccccc3)C(C)C)n2)cc1,"inconclusive: 12.6 µM [activator, partial curve]",
Cc1ccc(-n2ncc3c2CCCC3NC(=O)c2cnccn2)cc1C (configuration not stated),"inconclusive: 15.8 µM [activator, single point]",
COc1cccc(N=C2C(=O)N3CCCc4cccc2c43)c1,"inconclusive: 6.31 µM [activator, partial curve]",
COc1ccc(CCN(Cc2ccccn2)C(=S)Nc2cccc(SC)c2)cc1OC,active: 10 µM,
CCOc1ccc(NC(=O)c2nccnc2CO)cc1,"inconclusive: 11.2 µM [inhibitor, single point]",
CS(=O)(=O)c1cccc(C(=O)Nc2cccc(-c3nc4ccccc4[nH]3)c2)c1,,inactive: 32.9%
COCCOC1CCN(Cc2cn(Cc3ccccc3)nc2-c2cc3ccccc3o2)CC1,,inactive: 6.12%
CCCCN1C(=O)CCC(C(=O)O)C1c1ccc([N+](=O)[O-])cc1 (configuration not stated),,inactive: 5.24%
O=C(CSCc1ccccc1)N1CCN(c2ccc(F)cc2)CC1,"inconclusive: 10 µM [activator, partial curve]",
COc1cccc(-c2nc(-c3ccccc3)[nH]c(=O)c2C#N)c1,"inconclusive: 0.0282 µM [activator, full curve, poor fit]",
FC(F)(F)c1cccc(N2CCc3cn[nH]c32)c1,"inconclusive: 12.6 µM [activator, single point]",
Cc1ccc2c(c1)c1ccc3c(c1n2C)C(=O)C=CC3=O,active: 11.2 µM,
CC(=O)c1cccc(NC(=O)COC(=O)c2n[nH]c3ccccc23)c1,"inconclusive: 8.91 µM [activator, partial curve]",
CC1=CC(C)(C)N(C(=O)CSc2nccn2C)c2cc(C)ccc21,active: 11.2 µM,
O=C(NNC(=O)c1nn(-c2ccc(F)cc2)ccc1=O)c1ccc(Cl)cc1,"inconclusive: 31.6 µM [activator, partial curve, poor fit]",
COc1cccc(CNC(=O)CCC2CCCN(C(=O)c3cccnc3SC)C2)c1 (configuration not stated),"inconclusive: 35.5 µM [activator, single point]",
O=S(=O)(CCc1ccccc1)c1nnnn1-c1ccc(F)cc1Br,,inactive: -39.4%
Nc1c(-c2ccc(Cl)cc2)cnn1-c1ccccc1,,inactive: -26.6%
CSc1ncc(C(=O)Nc2ccccc2Cl)c(C)n1,"inconclusive: 22.4 µM [activator, single point]",
COc1ccc(-c2c(C)oc3cc(O)cc(O)c3c2=O)cc1OC,"inconclusive: 17.8 µM [activator, single point]",
COc1ccccc1N=CC=C1OC(C)(C)C(C)(C)O1,,inactive: 14.1%
O=C(Nc1ccc(NS(=O)(=O)c2ccccc2)cc1)c1ccc(Cl)cc1,,inactive: 8.76%
O=c1c2ccccc2c(-c2cccc(C(F)(F)F)c2)nn1-c1ccccc1,"inconclusive: 11.2 µM [activator, partial curve]",
CC(C)(C)NC(=O)NC(=O)CN1CCN(S(=O)(=O)c2ccc3c(c2)OCCO3)CC1,"inconclusive: 11.2 µM [activator, partial curve]",

SMILES,Potency,"activity change, negative = inhibition"
Cc1ccccc1C(=O)N(Cc1nc2ccccc2c(=O)[nH]1)C1CCCC1,"inconclusive: 31.6 µM [activator, single point]",
Cc1ccc(SCC(=O)Nc2ccc(-c3nc4ccccc4[nH]3)cc2)cc1,"inconclusive: 20 µM [inhibitor, single point]",
Nc1cnn(Cc2ccccc2F)c1,,inactive: -13.3%
N#Cc1cccc(NC(=O)COC(=O)c2ccccc2C(=O)c2ccc(Cl)c([N+](=O)[O-])c2)c1,"inconclusive: 35.5 µM [inhibitor, single point]",
O=C(Nc1cccc(-c2csc(-c3ccccc3)n2)c1)c1cccs1,"inconclusive: 5.62 µM [activator, full curve, poor fit]",
COCCNC(=O)c1c[nH]c2ccc(S(=O)(=O)N3CCc4ccccc43)cc2c1=O,"inconclusive: 17.8 µM [activator, single point]",
CC1(C)NC(=O)N(CC(O)Cn2nnc3ccccc32)C1=O (configuration not stated),"inconclusive: 0.158 µM [inhibitor, full curve, poor fit]",
COCCNC(=O)CSc1ccc(Cl)cc1,,inactive: 34.9%
CCOC(=O)c1cc2oc(C(c3nnnn3C3CCCCC3)N3CCOCC3)cc2[nH]1 (configuration not stated),"inconclusive: 10 µM [activator, partial curve]",
Cc1cccc(-n2c(SCC(=O)N3CC(=O)Nc4ccccc43)nc3ccccc3c2=O)c1C,"inconclusive: 22.4 µM [activator, single point]",
COc1ccc(NC(=S)c2ccc(N(C)C)cc2)cc1,"inconclusive: 15.8 µM [inhibitor, single point]",
CC12CC3(C)CC(C)(C1)CC(NC(=O)N1CCCC1)(C2)C3,"inconclusive: 0.158 µM [inhibitor, full curve]",
COC(=O)c1c(-c2cccc(C)c2)csc1NC(=O)C1CCCO1 (configuration not stated),"inconclusive: 35.5 µM [activator, single point]",
CC(SCC(=O)Nc1ccccc1)c1nc2ccccc2c(=O)[nH]1 (configuration not stated),"inconclusive: 2.82 µM [activator, single point]",
CCN(C(=O)CSc1nc2nc(C)cc(C)n2n1)c1ccccc1,,inactive: 6.93%
Cc1ccc(C(=O)NCC(=O)N/N=C/c2cccs2)cc1C,"inconclusive: 35.5 µM [inhibitor, single point]",
Cc1ccc(NC(=S)NC2CCN(Cc3ccccc3)CC2)cc1C,active: 11.2 µM,
O=C(CCC1CCCCC1)Nc1c2c(nn1-c1ccc(F)cc1)CS(=O)C2 (configuration not stated),"inconclusive: 22.4 µM [activator, single point]",
Cc1cccc(NC(=O)C2CCN(S(=O)(=O)c3cccs3)CC2)c1,,inactive: 29.6%
O=C(c1cc(-c2ccccc2)on1)N1CCN(c2ccccc2)CC1,"inconclusive: 35.5 µM [activator, single point]",
COC(=O)C1=C(C)OC(N)=C(C#N)C1c1c(C)nn(-c2ccccc2)c1Cl (configuration not stated),,inactive: 3.32%
COc1cccc(Oc2ccc(C(F)(F)F)cc2NC(=O)c2cccc(F)c2)c1,,inactive: 17.8%
CC1(C)CC(CC(=O)Nc2ccccc2[N+](=O)[O-])C(=O)O1 (configuration not stated),,inactive: 6.57%
CCC(=O)N(CCC1(c2ccccc2OC)CCOC(C(C)C)C1)Cc1ccco1 (configuration not stated),"inconclusive: 17.8 µM [activator, partial curve]",

# Given tab-delimited: entries from further up
SMILES	Potency	activity change, negative = inhibition
CCOC(=O)c1cc2oc(C(c3nnnn3C3CCCCC3)N3CCOCC3)cc2[nH]1 (configuration not stated)	inconclusive: 10 µM [activator, partial curve]	
CC12CC3(C)CC(C)(C1)CC(NC(=O)N1CCCC1)(C2)C3	inconclusive: 0.158 µM [inhibitor, full curve]	
COC(=O)c1c(-c2cccc(C)c2)csc1NC(=O)C1CCCO1 (configuration not stated)	inconclusive: 35.5 µM [activator, single point]	
COc1cccc(Oc2ccc(C(F)(F)F)cc2NC(=O)c2cccc(F)c2)c1		inactive: 17.8%

# Later entries

SMILES,Potency,"activity change, negative = inhibition"
COc1ccc(Nc2nc3ccccc3c(=O)s2)c(OC)c1,"inconclusive: 31.6 µM [inhibitor, single point]",
COCCCn1c(SCc2cccc(C(F)(F)F)c2)nc2cc(OC)c(OC)cc2c1=N,"inconclusive: 0.126 µM [inhibitor, full curve, poor fit]",
COc1ccc(N(CC(=O)NCCc2ccc(OC)c(OC)c2)S(=O)(=O)c2ccc(OC)c(OC)c2)cc1,,inactive: -8.87%
Cc1ccc(Nc2nc(-c3c(C)nc4ncccn34)cs2)cc1,"inconclusive: 14.1 µM [inhibitor, partial curve]",
COc1ccc(-c2nnc(NC(=O)c3ccccc3[N+](=O)[O-])s2)c(OC)c1,"inconclusive: 10 µM [inhibitor, partial curve]",
COc1ccccc1NC(=S)NCCc1ccccc1,active: 6.31 µM,
Cc1nc2ccccc2c2oc(C(=O)NCCN3CCN(C)CC3)cc12,"inconclusive: 35.5 µM [inhibitor, single point]",
O=C(OCC(=O)N1CCCCCC1)c1cccs1,"inconclusive: 3.16 µM [inhibitor, single point]",
O=C(CN1CCC(C(=O)c2ccc(F)cc2)CC1)Nc1ccc(F)cc1,"inconclusive: 17.8 µM [activator, partial curve]",
CCCN(CCC)C(=O)Cn1c(=O)c2sccc2n2c(=S)sc(-c3ccccc3)c12,,inactive: 2.83%
CSc1ccc(CNCCCSc2ncccn2)cc1,,inactive: -1.74%
Cc1c(Cl)cccc1NC(=S)N(Cc1ccccc1)Cc1cccnc1,"inconclusive: 35.5 µM [inhibitor, single point]",
CN1CCN(c2ccccc2NC(=O)c2cccc(OCc3ccccc3)c2)CC1,"inconclusive: 35.5 µM [inhibitor, single point]",
Clc1cccc(-c2nc(NCCCN3CCOCC3)c3ccccc3n2)c1,"inconclusive: 15.8 µM [inhibitor, single point]",
CC(C)(C)c1ccc(NC(=O)CSc2n[nH]c(=O)n2-c2cccnc2)cc1,"inconclusive: 15.8 µM [activator, partial curve]",
O=C1C2C3C=CC(C3)C2C(=O)N1/N=C/c1ccc(-c2ccccc2[N+](=O)[O-])o1 (configuration not stated),"inconclusive: 11.2 µM [activator, single point]",
O=C(Cc1ccccc1)Nc1nc2ccccc2[nH]1,active: 12.6 µM,
O=S(=O)(/N=C(/Nc1ccccc1)c1ccccc1)c1cccs1,"inconclusive: 6.31 µM [activator, single point]",
COc1cc2c(cc1NC(=O)COC(=O)CNS(=O)(=O)c1ccc(C)cc1)oc1ccccc12,active: 11.2 µM,
Cc1ccc(-c2nc3ccccc3nc2-c2ccccc2)cc1,"inconclusive: 11.2 µM [activator, partial curve]",
COc1cc2c(cc1NC(=O)CSc1nnc(COc3ccc(Cl)cc3)n1C)oc1ccccc12,"inconclusive: 14.1 µM [activator, single point]",
CC(C)Cn1cc(C(=O)N2CCOCC2)c2c3ccccc3n(C)c2c1=O,,inactive: -0.426%
O=c1cc(-c2ccc(Cl)cc2)[nH]c2ccccc12,,inactive: 29.6%
CC(C)c1ccc(NC(=O)c2cc(S(=O)(=O)NCC3COc4ccccc4O3)ccc2F)cc1 (configuration not stated),"inconclusive: 31.6 µM [activator, single point]",
